Test results from patent US20250283871A1, “COMPOSITIONS AND METHODS FOR MODULATING THE INTERACTION BETWEEN SS18-SSX FUSION ONCOPROTEIN AND NUCLEOSOMES” (Dana-Farber Cancer Institute, Inc., priority 2020, published 2025).

B1: ENO3 (protein, UniProt P13929 2-434, looked up)
Beta-enolase: AMQKIFAREILDSRGNPTVEVDLHTAKGRFRAAVPSGASTGIYEALELRDGDKGRYLGKGVLKAVENINNTLGPALLQKKLSVVDQEKVDKFMIELDGTENKSKFGANAILGVSLAVCKAGAAEKGVPLYRHIADLAGNPDLILPVPAFNVINGGSHAGNKLAMQEFMILPVGASSFKEAMRIGAEVYHHLKGVIKAKYGKDATNVGDEGGFAPNILENNEALELLKTAIQAAGYPDKVVIGMDVAASEFYRNGKYDLDFKSPDDPARHITGEKLGELYKSFIKNYPVVSIEDPFDQDDWATWTSFLSGVNIQIVGDDLTVTNPKRIAQAVEKKACNCLLLKVNQIGSVTESIQACKLAQSNGWGVMVSHRSGETEDTFIADLVVGLCTGQIKTGAPCRSERLAKYNQLMRIEEALGDKAIFAGRKFRNPKAK
B2: RBFOX2 (protein, UniProt O43251 1-390, looked up)
RNA binding protein fox-1 …: MQNEPLTPGYHGFPARDSQGNQEPTTTPDAMVQPFTTIPFPPPPQNGIPTEYGVPHTQDYAGQTGEHNLTLYGSTQAHGEQSSNSPSTQNGSLTTEGGAQTDGQQSQTQSSENSESKSTPKRLHVSNIPFRFRDPDLRQMFGQFGKILDVEIIFNERGSKGFGFVTFENSADADRAREKLHGTVVEGRKIEVNNATARVMTNKKMVTPYANGWKLSPVVGAVYGPELYAASSFQADVSLGNDAAVPLSGRGGINTYIPLISLPLVPGFPYPTAATTAAAFRGAHLRGRGRTVYGAVRAVPPTAIPAYPGVVYQDGFYGADLYGGYAAYRYAQPATATAATAAAAAAAAYSDGYGRVYTADPYHALAPAASYGVGAVASLYRGGYSRFAPY
B3: BLMH (protein, UniProt Q13867 1-455, looked up)
Bleomycin hydrolase: MSSSGLNSEKVAALIQKLNSDPQFVLAQNVGTTHDLLDICLKRATVQRAQHVFQHAVPQEGKPITNQKSSGRCWIFSCLNVMRLPFMKKLNIEEFEFSQSYLFFWDKVERCYFFLSAFVDTAQRKEPEDGRLVQFLLMNPANDGGQWDMLVNIVEKYGVIPKKCFPESYTTEATRRMNDILNHKMREFCIRLRNLVHSGATKGEISATQDVMMEEIFRVVCICLGNPPETFTWEYRDKDKNYQKIGPITPLEFYREHVKPLFNMEDKICLVNDPRPQHKYNKLYTVEYLSNMVGGRKTLYNNQPIDFLKKMVAASIKDGEAVWFGCDVGKHFNSKLGLSDMNLYDHELVFGVSLKNMNKAERLTFGESLMTHAMTFTAVSEKDDQDGAFTKWRVENSWGEDHGHKGYLCMTDEWFSEYVYEVVVDRKHVPEEVLAVLEQEPIILPAWDPMGALAE
B4: ZNF579 (protein, UniProt Q8NAF0 1-562, looked up)
Zinc finger protein 579: MDPQPPPPAQGSPPHRGRGRGRGRGRGRGRGRGRGGAGAPRAPLPCPTCGRLFRFPYYLSRHRLSHSGLRPHACPLCPKAFRRPAHLSRHLRGHGPQPPLRCAACPRTFPEPAQLRRHLAQEHAGGEVELAIERVAKETAEPSWGPQDEGSEPPTTAAAGATEEEAVAAWPETWPAGEPSTLAAPTSAAEPRESESEEAEAGAAELRAELALAAGRQEEKQVLLQADWTLLCLRCREAFATKGELKAHPCLRPEGEQEGEGGPPPRPKRHQCSICLKAFARPWSLSRHRLVHSTDRPFVCPDCGLAFRLASYLRQHRRVHGPLSLLAPLPAAGKKDDKASGARNSAKGPEGGEGAECGGASEGGEGQNGGDAAPARPPAGEPRFWCPECGKGFRRRAHLRQHGVTHSGARPFQCVRCQREFKRLADLARHAQVHAGGPAPHPCPRCPRRFSRAYSLLRHQRCHRAELERAAALQALQAQAPTSPPPPPPPLKAEQEEEGLPLPLANIKEEPPSPGTPPQSPPAPPVFLSASCFDSQDHSAFEMEEEEVDSKAHLRGLGGLAS
B5: RBM34 (protein, UniProt P42696 1-430, looked up)
RNA-binding protein 34: MALEGMSKRKRKRSVQEGENPDDGVRGSPPEDYRLGQVASSLFRGEHHSRGGTGRLASLFSSLEPQIQPVYVPVPKQTIKKTKRNEEEESTSQIERPLSQEPAKKVKAKKKHTNAEKKLADRESALASADLEEEIHQKQGQKRKNSQPGVKVADRKILDDTEDTVVSQRKKIQINQEEERLKNERTVFVGNLPVTCNKKKLKSFFKEYGQIESVRFRSLIPAEGTLSKKLAAIKRKIHPDQKNINAYVVFKEESAATQALKRNGAQIADGFRIRVDLASETSSRDKRSVFVGNLPYKVEESAIEKHFLDCGSIMAVRIVRDKMTGIGKGFGYVLFENTDSVHLALKLNNSELMGRKLRVMRSVNKEKFKQQNSNPRLKNVSKPKQGLNFTSKTAEGHPKSLFIGEKAVLLKTKKKGQKKSGRPKKQRKQK
B6: NOL8 (protein, UniProt Q76FK4 1-1167, looked up)
Nucleolar protein 8: MKVNRETKRLYVGGLSQDISEADLQNQFSRFGEVSDVEIITRKDDQGNPQKVFAYINISVAEADLKKCMSVLNKTKWKGGTLQIQLAKESFLHRLAQEREAAKAKKEESTTGNANLLEKTGGVDFHMKAVPGTEVPGHKNWVVSKFGRVLPVLHLKNQHKRKIIKYDPSKYCHNLKKIGEDFSNTIPISSLTWELEGGNDPMSKKRRGEFSDFHGPPKKIIKVQKDESSTGSLAMSTRPRRVIERPPLTQQQAAQKRTCDSITPSKSSPVPVSDTQKLKNLPFKTSGLETAKKRNSISDDDTDSEDELRMMIAKEENLQRTTQPSINESESDPFEVVRDDFKSGVHKLHSLIGLGIKNRVSCHDSDDDIMRNDREYDSGDTDEIIAMKKNVAKVKNSTEFSQMEKSTKKTSFKNRENCELSDHCIKLQKRKSNVESALSHGLKSLNRKSPSHSSSSEDADSASELADSEGGEEYNAMMKNCLRVNLTLADLEQLAGSDLKVPNEDTKSDGPETTTQCKFDRGSKSPKTPTGLRRGRQCIRPAEIVASLLEGEENTCGKQKPKENNLKPKFQAFKGVGCLYEKESMKKSLKDSVASNNKDQNSMKHEDPSIISMEDGSPYVNGSLGEVTPCQHAKKANGPNYIQPQKRQTTFESQDRKAVSPSSSEKRSKNPISRPLEGKKSLSLSAKTHNIGFDKDSCHSTTKTEASQEERSDSSGLTSLKKSPKVSSKDTREIKTDFSLSISNSSDVSAKDKHAEDNEKRLAALEARQKAKEVQKKLVHNALANLDGHPEDKPTHIIFGSDSECETEETSTQEQSHPGEEWVKESMGKTSGKLFDSSDDDESDSEDDSNRFKIKPQFEGRAGQKLMDLQSHFGTDDRFRMDSRFLETDSEEEQEEVNEKKTAEEEELAEEKKKALNVVQSVLQINLSNSTNRGSVAAKKFKDIIHYDPTKQDHATYERKRDDKPKESKAKRKKKREEAEKLPEVSKEMYYNIAMDLKEIFQTTKYTSEKEEGTPWNEDCGKEKPEEIQDPAALTSDAEQPSGFTFSFFDSDTKDIKEETYRVETVKPGKIVWQEDPRLQDSSSEEEDVTEETDHRNSSPGEASLLEKETTRFFFFSKNDERLQGSDLFWRGVGSNMSRNSWEARTTNLRMDCRKKHKDAKRKMKPK

test system: BAF complex subunits and histone proteins; assay: Mass spectrometry proteomics of purified HA-SS18 WT and HA-SS18-SSX1 complexes (Tables 5A-5E); set-up: species or system human; details: HA-SS18WT_CHR_peptides: protein identified in HA-SS18 WT BAF complex purification from nuclease-treated solubilized chromatin (CHR), HEK-293T

Row | Molecule | Total (total peptides) | Unique (unique peptides)
1 | B1 | 1 | 1
2 | B2 | 1 | 1
3 | B3 | 1 | 1
4 | B4 | 1 | 1
5 | B5 | 1 | 1
6 | B6 | 1 | 1
